For one substance, binding results are on record in article PMC11022703.

Protein sequences, listed by entry. Tags and fused reporters are not part of them.
UniProt Q9UKV8: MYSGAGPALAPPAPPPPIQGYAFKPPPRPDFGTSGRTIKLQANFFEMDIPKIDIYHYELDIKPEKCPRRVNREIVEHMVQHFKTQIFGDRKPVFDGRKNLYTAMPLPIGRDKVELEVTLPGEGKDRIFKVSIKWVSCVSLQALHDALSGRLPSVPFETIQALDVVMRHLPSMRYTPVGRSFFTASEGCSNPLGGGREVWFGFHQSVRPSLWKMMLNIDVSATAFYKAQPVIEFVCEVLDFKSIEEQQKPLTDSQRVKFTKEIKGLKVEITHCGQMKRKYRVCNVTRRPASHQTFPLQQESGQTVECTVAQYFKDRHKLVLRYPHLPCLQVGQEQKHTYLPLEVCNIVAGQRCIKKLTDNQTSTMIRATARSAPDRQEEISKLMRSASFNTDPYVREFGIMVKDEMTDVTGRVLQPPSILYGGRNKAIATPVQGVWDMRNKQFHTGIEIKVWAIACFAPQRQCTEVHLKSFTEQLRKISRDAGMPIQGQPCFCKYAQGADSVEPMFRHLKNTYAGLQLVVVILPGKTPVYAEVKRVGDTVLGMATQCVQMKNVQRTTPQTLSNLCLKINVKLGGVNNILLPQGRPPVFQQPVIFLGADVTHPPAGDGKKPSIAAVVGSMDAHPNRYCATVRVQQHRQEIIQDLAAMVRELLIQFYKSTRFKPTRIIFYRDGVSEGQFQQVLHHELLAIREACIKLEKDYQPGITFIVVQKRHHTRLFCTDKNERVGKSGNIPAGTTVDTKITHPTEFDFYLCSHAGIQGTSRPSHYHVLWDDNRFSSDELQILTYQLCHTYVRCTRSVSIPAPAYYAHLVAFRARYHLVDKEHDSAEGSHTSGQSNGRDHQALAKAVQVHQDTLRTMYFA

This test has as its target T1, Tank‐binding kinase 1 (TBK1) (human (endogenous in HeLa)) (UniProt Q9UHD2).
T1 sequence: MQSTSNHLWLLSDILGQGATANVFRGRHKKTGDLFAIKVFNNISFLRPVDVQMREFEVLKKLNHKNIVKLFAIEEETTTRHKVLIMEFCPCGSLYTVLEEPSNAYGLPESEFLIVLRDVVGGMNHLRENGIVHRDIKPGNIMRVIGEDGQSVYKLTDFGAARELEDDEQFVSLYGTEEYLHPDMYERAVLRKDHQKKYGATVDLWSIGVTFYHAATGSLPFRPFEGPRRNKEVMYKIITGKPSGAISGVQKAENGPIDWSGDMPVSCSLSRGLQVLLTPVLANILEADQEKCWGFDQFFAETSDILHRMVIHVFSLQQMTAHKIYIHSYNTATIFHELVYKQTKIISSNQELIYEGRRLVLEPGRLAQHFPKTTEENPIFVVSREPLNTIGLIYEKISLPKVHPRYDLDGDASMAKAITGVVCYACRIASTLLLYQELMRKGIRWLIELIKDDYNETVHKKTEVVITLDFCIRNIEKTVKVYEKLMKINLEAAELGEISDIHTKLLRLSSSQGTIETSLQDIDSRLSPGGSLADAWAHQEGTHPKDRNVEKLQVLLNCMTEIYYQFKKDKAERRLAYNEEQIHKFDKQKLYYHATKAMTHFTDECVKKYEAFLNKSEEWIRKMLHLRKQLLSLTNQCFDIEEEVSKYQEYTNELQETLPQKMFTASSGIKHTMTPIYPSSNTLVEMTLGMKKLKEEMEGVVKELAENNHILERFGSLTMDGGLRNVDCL
Briefly: co-IP; HeLa cell lysates; reciprocal Co-IP with anti-TBK1 antibody (blot anti-AGO2) or anti-AGO2 antibody (blot anti-TBK1); endogenous proteins.

These are yes or no findings as the source states them, for the method shown. Binding seen in cells or lysates may run through a third protein. Some results given as binding are weak or reduced against the parent protein; the word gives no strength.

In the case of AGO2 (from UniProt Q9UKV8 1-859), the binding entry is “binds”.
